The record followed here is paper PMC2659420.

By UniProt entry, the sequences of proteins in these tests, tags left out. Residues count along the entry.
UniProt P03973, residues 26-132: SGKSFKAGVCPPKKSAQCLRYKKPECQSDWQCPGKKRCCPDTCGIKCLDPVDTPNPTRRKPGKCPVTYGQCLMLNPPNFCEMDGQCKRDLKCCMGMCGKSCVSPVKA

In experiment [1] the target is T1, GST-PLSCR1 (full length PLSCR1 fused to glutathione-S-transferase) (human) (UniProt O15162).
T1 sequence: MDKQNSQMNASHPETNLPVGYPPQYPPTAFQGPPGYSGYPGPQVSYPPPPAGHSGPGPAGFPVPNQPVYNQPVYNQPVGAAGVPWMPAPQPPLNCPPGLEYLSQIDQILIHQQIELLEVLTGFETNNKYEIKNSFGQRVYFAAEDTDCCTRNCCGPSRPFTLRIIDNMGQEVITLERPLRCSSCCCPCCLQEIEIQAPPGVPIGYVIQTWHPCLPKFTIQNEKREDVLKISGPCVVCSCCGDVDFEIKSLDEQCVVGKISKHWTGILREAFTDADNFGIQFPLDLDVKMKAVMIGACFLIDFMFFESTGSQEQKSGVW
The experiment is described as follows: pull-down; the same inhibition experiment, for the pair of purified soluble GST-SLPI and immobilised GST-PLSCR1 (displacement of CD4); both purified.

For experiment [2], the target named is LexA-SLPI (a.a. 26-132), mature form of secretory leukocyte protease inhibitor fused to LexA (human) (UniProt P03973). The experiment is described as follows: two-hybrid.
The target of the next experiment is Non-tagged SLPI (human) (UniProt P03973). As to the kind of experiment: ELISA; plates coated with non-tagged SLPI at 0.25 µM; GST-PLSCR1 or GST at 1 nM to 1 µM, 2 h at 37°C in PBS-TB; anti-GST detection, OD 450 nm; both purified. Background: ELISA stands for enzyme-linked immunosorbent assay.

No constants are given. Whether binding was seen depends on the method and setting. Some entries that bind do so weakly or less than the wild type. Tags and fused reporters may be left off the sequences shown.

Consider “GST-SLPI(26-132) (from UniProt P03973 26-132)”, for which, in experiment [1], the binding result is recorded as “binds”.

B1: Gal4AD-PLSCR1 (residues 155-233), minimal deleted form (domain or fragment, UniProt O15162 155-233)
chain: GPSRPFTLRIIDNMGQEVITLERPLRCSSCCCPCCLQEIEIQAPPGVPIGYVIQTWHPCLPKFTIQNEKREDVLKISGP
As for B1, the binding entry in experiment [2] was “binds”.

B2: Gal4AD-PLSCR1 (full length phospholipid scramblase 1 fused to the Gal4 activation domain) (protein, UniProt O15162 1-318)
chain: T1 sequence
For B2, the binding entry in experiment [2] is listed as “binds”.

B3: GST-PLSCR1 (full length PLSCR1 fused to glutathione-S-transferase) (protein, UniProt O15162 1-318)
chain: T1 sequence
In the case of B3, in the experiment with Non-tagged SLPI (human), the binding entry is recorded as “binds”.
